In article doi:10.1101/2022.05.30.493970:

Tests used:
GammaD-crystallin W130E [1] = assay: SEC
GammaD-crystallin W130E [2] = assay: SEC; remark: listed apart in the source

B1: HSPB5 WT (full length) (protein, UniProt P02511 1-175)
chain: MDIAIHHPWIRRPFFPFHSPSRLFDQFFGEHLLESDLFPTSTSLSPFYLRPPSFLRAPSWFDTGLSEMRLEKDRFSVNLDVKHFSPEELKVKVLGDVIEVHGKHEERQDEHGFISREFHRKYRIPADVDPLTITSSLSSDGVLTVNGPRKQVSGPERTIPITREEKPAVTAAPKK
binding (GammaD-crystallin W130E [1]): binds | binding (GammaD-crystallin W130E [2]): no binding (only at pH 7.5)

Read-outs that look alike come from different tables or passages of the source. No constants are given. Whether binding was seen depends on the method and setting. For some assays here: Binding calls can cover weak binding; strength is not graded here.
